# In EP4644419A1:
# By UniProt entry, the sequences of proteins in these tests, tags left out. Where a name states a change or a piece, a line headed by the entry shows the natural chain unless it says otherwise.
# UniProt Q6DKI7: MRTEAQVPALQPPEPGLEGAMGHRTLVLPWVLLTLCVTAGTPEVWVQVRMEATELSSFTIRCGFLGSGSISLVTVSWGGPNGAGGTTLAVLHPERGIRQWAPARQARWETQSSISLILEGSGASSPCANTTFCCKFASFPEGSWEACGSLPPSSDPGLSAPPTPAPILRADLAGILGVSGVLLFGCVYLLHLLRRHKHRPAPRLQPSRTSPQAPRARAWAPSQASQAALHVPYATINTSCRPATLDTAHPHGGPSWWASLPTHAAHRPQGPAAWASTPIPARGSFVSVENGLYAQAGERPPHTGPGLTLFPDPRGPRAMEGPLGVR
# These are yes or no findings as the source states them, for the method shown. Binding calls can cover weak binding; strength is not graded here.
# B1: C41 (antibody, human IgG1, kappa, V domains shown)
# VH: EVQLQQSGPELVKPGASVKISCKASGNTFTDYYINWVKQSHGKSLEWIGDIEPNNGGTNYNQKFKGKATLTVDKSSSTAYMELRSLTSEDSAIYYCATLYFDYWGQGTTLTVSS
# VL: DIVMTQSPSSLSVSAGEKVTMSCKSSQSLLNSGNQKNYLAWYQQKPGQPPKLLIYGASTRESGVPDRFTGSGSGTDFTLTISSVQAEDLAVYYCQNDHSYPFTFGSGTKLEIKR
# B2: C39 (antibody, human IgG1, kappa, V domains shown)
# VH: QAYLQQSGAELVRPGASVKMSCKASGYTFTSYNIHWVKQTPRQGLEWIGAIYPGNADISYNQKFRDKATLTVDKSSSTAYMQLSSLTSEDSAVYFCAKPLRIYAMDCWGQGTSVTVSS
# VL: DIVMTQSQKFMSTSVGDRVSVTCKASQNVGTNVAWYQQKPGQSPKALIYSASYRYSGVPDRFTGSGSGTDFTLTISNVQSEDLADYFCQQYNSRPLTFGGGTKLEIKR
# B3: C43 (antibody, human IgG1, kappa, V domains shown)
# VH: QVQLQQPGAELVRPGTSVKLSCKASGNTFTTYWMHWVKQRPGQGHEWIGVIDASDSNTKYNQKFKGKATLTVDTSSSTAYMQLSSLTSEDSAVYYCARYYSGSSYGLDYWGQGTTLTVSS
# VL: DIQMTQTASSLSASLGDRVTISCRASQDISNYLNWYQQKPDGTVKLLIYYTSRLHSGVPSRFSGSGSGTDYSLTITNLEQEDIASYFCQQGNMFPPTFGGGTKLEIKR
# B4: C36 (antibody, human IgG1, kappa, V domains shown)
# VH: QIQLVQSGPELKKPGETVKISCKASGYTFTTYGMSWVKQAPGKGLKWMGWINTYSGVPTYADDFKGRFAFSLETSASNAYLQINNLKNEDTATYFCARELPFTTIIGTKDYWGQGTTLTVSS
# VL: DIVLIQSPATLSVTPGDSVSLSCRASQFISNNLHWYQQKSHESPRLLIKYASQSISGIPSRFSGGGSGTDFTLTVNSVETEDFGMYFCQQSNSWPHTFGGGTKLEIKR
# B5: C44 (antibody, human IgG1, kappa, V domains shown)
# VH: QVQLQQSGPELMKPGASLKISCKASGYTFTDSYINWVKQRPGQGLEWIGWIFPGSGSTYYNEKFKGTATLTVDKSSSTAYMLLSSLTSEDSAAYFCARDGGLRGPFDYWGQGTTLTVSS
# VL: DIQMTQSPSSLSASLGGKVTITCKASQDINKYIAWYQHKPGKGPRLLIHYTSTLQSGIPSRFSGSGSGRDYFFSISNLESEDIATYYCLQYDHLLTFGGGTKLEIKR
# B6: anti-CD112R antibody CHA.7.518 (antibody, V domains shown)
# VH: QVQLVQSGAEVKKPGASVKVSCKASGYTFTDYNINWVRQAPGQGLEWMGYIYPYIGGSGYAQKFQGRVTMTRDTSTSTVYMELSSLRSEDTAVYYCAREDKTARNAMDYWGQGTLVTVSS
# VL: DIQMTQSPSSLSASVGDRVTITCRVSENIYSNLAWYQQKPGKAPKLLIYEATNLAEGVPSRFSGSGSGTDFTLTISSLQPEDFATYYCQHFWGTPYTFGQGTKLEIKR
# Biological target: human CD112R antigen protein huCD112R-His (Acro Biosysterm, PVG-H52H4) (human) (UniProt Q6DKI7)
# Assay: ELISA, huCD112R-His coated on plate
row,binding,Binder
1,binds,B1
2,binds,B2
3,binds,B3
4,binds,B4
5,binds,B5

# Biological target: human CD112R antigen protein huCD112R-His (Acro Biosysterm, PVG-H52H4) (human) (UniProt Q6DKI7)
# Assay: ELISA, CD112R-His coated on plate
row,binding,Binder
1,binds,B6

# Biological target: monkey antigen protein (monkey CD112R, Uniprot ID: A0A2K5WVV8) (monkey)
# Assay: ELISA, monkey antigen protein
row,binding,Binder
1,binds,B1
2,binds,B2
3,binds,B3
4,binds,B4
5,binds,B5
